# From PubChem BioAssay AID493014 (National Center for Advancing Translational Sciences (NCATS), 2011)
# Some of the results follow. Further columns of the screen follow, without active or inactive calls. Most of these compounds were active or inconclusive in the main read-out, so they are no random draw. Potencies come from curve fits of mixed quality, noted in brackets.
# Experiment: qHTS Assay to Find Inhibitors of Chronic Active B-Cell Receptor Signaling
# Conditions: ABC-DLBCL IkBa-CBG/CBR reporter, luminescence ratio (green luciferase fused to IkBa over red control in TMD8 lymphoma cells), 4 h
# Method in brief: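 Cell line TMD8 (human ABC DLBCL), stably expressing tet-inducible CBG68-IkBa fusion and CBR; IMDM/0.5% FBS; cpd up to 46 uM; dox induction, 4 h, 37C/5% CO2; dual luminescence; green/red ratio; MG132 control.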
# [1] = measured here: CBR red luminescence, cell number
# [2] = measured here: IkBa-CBG green luminescence
smiles,measurement,setting,value
CCCCC1CC(CSC(=N)N)OC1=O (stereo not drawn),AC50,[1],"12.6 µM [falling, partial curve, poor fit]"
COCCCNc1nc2ccccc2nc1NS(=O)(=O)c1ccc(F)cc1,AC50,[1],"14.1 µM [falling, single point]"
CC(C)c1ccc(O)c(NC(=S)NC(=O)c2cccnc2)c1,AC50,[1],"35.5 µM [falling, single point]"
CN(C)S(=O)(=O)Nc1cccc(Br)c1,AC50,[1],"35.5 µM [rising, single point]"
COc1cccc(OCC(=O)NC2CCCCC2)c1,AC50,[1],"15.8 µM [falling, single point]"
O=C(CN1C(=O)S/C(=C\c2ccc(Cl)cc2)C1=O)NC1C=CS(=O)(=O)C1 (stereo not drawn),AC50,[1],"2.82 µM [falling, full curve]"
Cc1ccc(NC(=O)c2ccc(NCCCN3CCOCC3)c([N+](=O)[O-])c2)cc1Cl,AC50,[1],"8.2 µM [falling, partial curve, poor fit]"
O=C1N/C(=C\c2ccccc2)c2ccccc21,AC50,[1],"32.6 µM [falling, single point]"
COc1ccc(-c2nc(NC(=O)c3cc(C(C)(C)C)nn3C)sc2C)cc1,AC50,[1],"4.47 µM [falling, partial curve, poor fit]"
Cc1ccccc1NS(=O)(=O)c1ccc(C(=O)N2CCCCCCC2)cc1,AC50,[1],"29.1 µM [falling, single point]"
Cc1cc(=O)c2ccc3ccccc3c2[nH]1,AC50,[1],"18.4 µM [falling, single point]"
same,AC50,[2],"18.4 µM [rising, partial curve, poor fit]"
COCC1CCN(C(=O)c2cc(COc3cccc4cnccc34)on2)CC1,AC50,[1],"11.2 µM [falling, single point]"
COc1cc(C)ccc1OCC(=O)Nc1ccc2c(c1)OCO2,AC50,[1],"25.9 µM [falling, partial curve, poor fit]"
COc1cc(-c2[nH]nc3c2C(c2ccco2)C(C#N)=C(N)O3)cc(OC)c1OC (stereo not drawn),AC50,[1],"23.1 µM [falling, single point]"
COc1cc(/C=C2\NC(=S)N(C)C2=O)ccc1O,AC50,[1],"22.4 µM [falling, single point]"
COC(=O)C(Cc1ccc(O)cc1)NC(=O)C1CCN(S(=O)(=O)c2ccc(C)cc2)CC1 (stereo not drawn),AC50,[1],"35.5 µM [falling, single point]"
CC(=Nc1ccc(C)cc1C)c1sc2ccccc2c1O,AC50,[1],"5.62 µM [rising, single point]"
O=C(CCS(=O)(=O)c1ccccc1)N(CCCN1CCOCC1)c1nc2c(F)cccc2s1,AC50,[1],"20.6 µM [falling, single point]"
COCCNC(=O)c1snc2ccc(Cl)cc12,AC50,[1],"13 µM [falling, partial curve, poor fit]"
COc1ccc(OC)c(NC(=O)COc2ccc3c(c2)CCC3)c1,AC50,[1],"29.1 µM [falling, single point]"
CC1CCCCC1NC(=O)COc1cccnc1[N+](=O)[O-] (stereo not drawn),AC50,[1],"29.1 µM [rising, single point]"
COc1ccc(NC(=O)c2ccc3ncsc3c2)cc1,AC50,[1],"20 µM [falling, partial curve, poor fit]"
O=C(COC(=O)C1(c2ccc(F)cc2)CCCC1)Nc1ncc(C(F)(F)F)cc1Cl,AC50,[1],"4.11 µM [rising, partial curve, poor fit]"
O=C(Nc1ccc(Cl)cc1)Nc1nnc(SCc2ccc(Cl)cc2)s1,AC50,[1],"16.4 µM [rising, single point]"
O=C(COC(=O)c1ccccc1C(=O)c1ccc(Cl)cc1)NCCc1ccccc1,AC50,[1],"5.8 µM [falling, full curve, poor fit]"
COc1ccc(N2CC(C(=O)Nc3nc4ccccc4s3)CC2=O)cc1 (stereo not drawn),AC50,[1],"35.5 µM [falling, single point]"
C=CCN(CC=C)c1nc2ccccc2nc1C(C#N)C(=O)OC(C)C (stereo not drawn),AC50,[2],"16.4 µM [rising, partial curve, poor fit]"
CCOC(=O)c1c(NC(=O)c2nc3n(n2)C(C(F)F)CC(C)N3)sc2c1CCCC2 (stereo not drawn),AC50,[1],"22.4 µM [rising, single point]"
C=C1CCC[C@]2(C)C[C@H]3OC(=O)C(CN4CC(C)OC(C)C4)[C@H]3C[C@@H]12 (stereo partly drawn),AC50,[1],"7.94 µM [falling, partial curve]"
CCCc1cc(=O)[nH]c(N2CCN(Cc3ccc4c(c3)OCO4)CC2)n1,AC50,[1],"0.0891 µM [falling, full curve, poor fit]"
CCCCn1c(N2CCCC2)nc2c1c(=O)[nH]c(=O)n2C,AC50,[1],"4.47 µM [rising, full curve, poor fit]"
Cc1ccccc1C(=O)Nc1cccc(NC(=O)c2cccnc2)c1,AC50,[1],"11.2 µM [falling, partial curve, poor fit]"
CCN(CC)CCCNC(=O)CCC(=O)Nc1ccc2nc(N3CCCCC3)cc(C)c2c1,AC50,[1],"1.26 µM [falling, full curve, poor fit]"
COC(=O)C(C)N1C(=O)S/C(=C\c2cc(C)n(-c3ccccn3)c2C)C1=O (stereo not drawn),AC50,[1],"10.3 µM [rising, partial curve, poor fit]"
CC(NC(=O)c1ccco1)c1nc(-c2ccc(Cl)cc2)no1 (stereo not drawn),AC50,[1],"6.31 µM [rising, partial curve, poor fit]"
Cc1cc(C)cc(NC(=O)C(=O)NCC2CCCO2)c1 (stereo not drawn),AC50,[1],"11.2 µM [falling, partial curve]"
CN(c1ccc(C(=O)N2CCN(Cc3ccccc3)CC2)cc1)S(=O)(=O)c1ccccc1,AC50,[1],"17.8 µM [falling, partial curve, poor fit]"
COc1cc(C(=S)N2CCOCC2)cc(OC)c1OC(=O)c1ccccc1[N+](=O)[O-],AC50,[1],"1.12 µM [rising, full curve]"
Cc1nnc(NC(=O)CSc2ccc(-c3ccccn3)nn2)s1,AC50,[1],"12.6 µM [rising, single point]"
Cc1cc(NC(=O)c2cc(-c3ccc4c(c3)OCO4)on2)n(-c2ccccc2)n1,AC50,[1],"35.5 µM [falling, single point]"
CNc1ccc(Oc2c(F)c(F)nc(F)c2F)cc1,AC50,[1],"25.1 µM [rising, single point]"
N#C/C(=N\Nc1ccc(S(=O)(=O)N2CCCCCC2)cc1)C(N)=S,AC50,[1],"11.2 µM [falling, partial curve, poor fit]"
same,AC50,[2],"8.91 µM [rising, partial curve, poor fit]"
O=C(c1ccc(F)cc1)N(Cc1ccccc1)C1CCS(=O)(=O)C1 (stereo not drawn),AC50,[1],"22.4 µM [rising, single point]"
O=C(Nc1cccc2cccnc12)c1cccc(Cl)c1,AC50,[1],"6.31 µM [falling, full curve]"
O=C(CSc1n[nH]c(-c2cc(Cl)ccc2Cl)n1)NCCN1C(=O)CSC1=O,AC50,[1],"32.6 µM [rising, single point]"
CN(C)c1nc(N)nc(CSc2ncc(Cl)cc2Cl)n1,AC50,[1],"14.6 µM [rising, partial curve]"
COc1ccc(NC(=O)CCn2nc(C)cc2C)cc1,AC50,[1],"7.31 µM [falling, partial curve]"
COC(=O)c1ccc(/C=C/C(=O)c2ccc(OC)c(OC)c2)cc1,AC50,[1],"15.8 µM [falling, single point]"
CCOc1cc(/C=C(/C#N)C(=O)Nc2ccc(O)cc2)cc(Br)c1O,AC50,[1],"23.1 µM [falling, partial curve]"
same,AC50,[2],"8.2 µM [falling, partial curve]"
O=C(CNC(=O)c1ccccc1F)c1ccccc1,AC50,[1],"7.94 µM [falling, partial curve]"
Cc1cc(-c2ccccc2)nc2oc(C(=O)NN)c(N)c12,AC50,[1],"25.1 µM [falling, single point]"
Cc1cccc(NC(=S)Nc2cccc(C)n2)n1,AC50,[1],"3.98 µM [rising, single point]"
O=C(O)CSC(C(=O)Nc1ccc(Br)cc1)c1ccc(Cl)cc1 (stereo not drawn),AC50,[1],"8.91 µM [rising, partial curve]"
CC1CCN(C(=O)C(=O)c2cn(CC(=O)N3CCCCCC3)c3ccccc23)CC1,AC50,[1],"1 µM [falling, full curve, poor fit]"
C=CCC[C@@H](Cc1ccc(F)cc1)C(=O)OC[C@@H]1CCCN1C(=O)[C@@H](CC=C)CC(=O)N(CCO)Cc1ccccc1,AC50,[1],"29.1 µM [falling, single point]"
O=C1OCc2nc3cc4c(cc3c(-c3ccc(F)cc3)c21)OCO4,AC50,[1],"0.316 µM [falling, full curve, poor fit]"
c1ccc(C2=Nn3c(nnc3-c3cccs3)SC2)cc1,AC50,[1],"5.62 µM [falling, partial curve, poor fit]"
COc1ccccc1N1CCN(C/C(O)=C(\C#N)c2nc(-c3ccccc3)cs2)CC1,AC50,[1],"2.31 µM [rising, full curve, poor fit]"
Cn1c(/N=C/c2c[nH]c3ccccc23)nc2ccccc21,AC50,[1],"12.6 µM [falling, partial curve, poor fit]"
Cc1ccc(NC(=O)CSc2nnc(N)s2)cc1S(=O)(=O)N1CCOCC1,AC50,[1],"29.1 µM [rising, partial curve, poor fit]"
C/C(CC(=O)Nc1ccc(N(C)C)cc1)=N\NC(=O)c1cnccn1,AC50,[1],"20.6 µM [falling, single point]"
c1ccc(-c2ccc(-c3ccccn3)nn2)nc1,AC50,[1],"6.31 µM [falling, partial curve, poor fit]"
CC#C[C@@H](CC)c1ccc2ccn(C)c2c1,AC50,[1],"18.4 µM [rising, single point]"
same,AC50,[2],"32.6 µM [falling, partial curve, poor fit]"
O=C(Nc1ccc([N+](=O)[O-])cc1)Nc1ccc(Cl)cc1F,AC50,[1],"1.12 µM [rising, partial curve, poor fit]"

# Reprinted from above for reference:
smiles,measurement,setting,value
CC(NC(=O)c1ccco1)c1nc(-c2ccc(Cl)cc2)no1 (stereo not drawn),AC50,[1],"6.31 µM [rising, partial curve, poor fit]"
Cc1cc(C)cc(NC(=O)C(=O)NCC2CCCO2)c1 (stereo not drawn),AC50,[1],"11.2 µM [falling, partial curve]"
